Here are results for five molecules from publication PMC5853561, “Affinity purification with metabolomic and proteomic analysis unravels diverse roles of nucleoside diphosphate kinases” (Journal of Experimental Botany, 2017).

By UniProt entry, the sequences of proteins in these tests, tags left out.
UniProt Q9LZG0: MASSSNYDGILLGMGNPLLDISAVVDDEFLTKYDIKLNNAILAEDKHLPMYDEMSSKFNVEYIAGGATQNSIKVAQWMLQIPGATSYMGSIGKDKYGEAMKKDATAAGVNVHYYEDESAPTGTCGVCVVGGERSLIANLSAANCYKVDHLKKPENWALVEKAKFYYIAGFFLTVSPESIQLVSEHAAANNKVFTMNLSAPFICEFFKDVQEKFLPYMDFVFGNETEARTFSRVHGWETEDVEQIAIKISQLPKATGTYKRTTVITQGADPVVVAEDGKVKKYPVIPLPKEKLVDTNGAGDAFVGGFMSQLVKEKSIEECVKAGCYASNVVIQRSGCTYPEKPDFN

Like-named read-outs stand apart in the source and are kept apart here. These are yes or no findings as the source states them, for the method shown. Binding seen in cells or lysates may run through a third protein. These calls come from enrichment with a bait or labelling near it, and not all partners need be listed. Sequences can lack the tags named with a protein.

Holding throughout (assay): affinity purification with mass spectrometry; TAP-tagged NDPK (lines with N- and with C-terminal tag) captured from native lysate of Arabidopsis PSB-L cell cultures on IgG Sepharose, 1 h at 4 °C; lysis buffer 0.025 M Tris-HCl pH 7.5, 0.5 M NaCl, 0.015 M MgCl2, 0.5 mM DTT; wash 0.025 M Tris-HCl pH 7.5, 0.5 M NaCl; elution with AcTEV protease; LC/MS/MS; hits absent from empty vector and blank controls and present in both N- and C-tagged samples, then filtered by subcellular localisation

The target of experiment [1] is T1, Arabidopsis thaliana nucleoside diphosphate kinase 1, TAP-tagged (Arabidopsis thaliana) (UniProt P39207).
T1 sequence: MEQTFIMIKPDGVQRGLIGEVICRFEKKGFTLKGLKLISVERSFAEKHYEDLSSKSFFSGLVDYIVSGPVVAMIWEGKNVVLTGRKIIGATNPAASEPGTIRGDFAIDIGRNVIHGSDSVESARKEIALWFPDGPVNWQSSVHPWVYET

Experiment [2] has as its target T2, Arabidopsis thaliana nucleoside diphosphate kinase 3, TAP-tagged (Arabidopsis thaliana) (UniProt O49203).
T2 sequence: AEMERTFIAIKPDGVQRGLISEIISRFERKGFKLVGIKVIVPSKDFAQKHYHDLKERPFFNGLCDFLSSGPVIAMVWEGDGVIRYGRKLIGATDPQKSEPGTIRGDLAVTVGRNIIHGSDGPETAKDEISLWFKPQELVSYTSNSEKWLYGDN

For experiment [3], the target named is T1, Arabidopsis thaliana nucleoside diphosphate kinase 1, TAP-tagged (Arabidopsis thaliana). The source holds these as a separate data set.

Regarding “adenosine kinase 2 (from UniProt Q9LZG0 1-345) (enzyme)”, in experiment [1], the binding result is “binds”.
For “isoform 2 of Clp protease adaptor-protein ClpF”, the binding entry in experiment [2] is listed as “binds”.
For pyruvate kinase (enzyme), in experiment [1], the binding result is listed as “binds”.

B1: alkaline/neutral invertase CINV1 (enzyme, UniProt Q9LQF2 1-551)
chain: MEGVGLRAVGSHCSLSEMDDLDLTRALDKPRLKIERKRSFDERSMSELSTGYSRHDGIHDSPRGRSVLDTPLSSARNSFEPHPMMAEAWEALRRSMVFFRGQPVGTLAAVDNTTDEVLNYDQVFVRDFVPSALAFLMNGEPDIVKHFLLKTLQLQGWEKRVDRFKLGEGVMPASFKVLHDPIRETDNIVADFGESAIGRVAPVDSGFWWIILLRAYTKSTGDLTLSETPECQKGMKLILSLCLAEGFDTFPTLLCADGCSMIDRRMGVYGYPIEIQALFFMALRSALSMLKPDGDGREVIERIVKRLHALSFHMRNYFWLDHQNLNDIYRFKTEEYSHTAVNKFNVMPDSIPEWVFDFMPLRGGYFVGNVGPAHMDFRWFALGNCVSILSSLATPDQSMAIMDLLEHRWAELVGEMPLKICYPCLEGHEWRIVTGCDPKNTRWSYHNGGSWPVLLWQLTAACIKTGRPQIARRAVDLIESRLHRDCWPEYYDGKLGRYVGKQARKYQTWSIAGYLVAKMLLEDPSHIGMISLEEDKLMKPVIKRSASWPQL
Regarding B1, the binding entry in experiment [3] was “binds”.

B2: inositol-tetrakisphosphate 1-kinase 1 (enzyme, UniProt Q9SBA5 1-319)
chain: MSDSIQERYLVGYALAAKKQHSFIQPSLIEHSRQRGIDLVKLDPTKSLLEQGKLDCIIHKLYDVYWKENLHEFREKCPGVPVIDLPEAIERLHNRVSMLEVITQLRFPVSDSERFGVPEQVVVMDSSVLSGGGALGELKFPVIAKPLDADGSAKSHKMFLIYDQEGMKILKAPIVLQEFVNHGGVIFKVYVVGDHVKCVKRRSLPDISEEKIGTSKGSLPFSQISNLTAQEDKNIEYGEDRSLEKVEMPPLSFLTDLAKAMRESMGLNLFNFDVIRDAKDANRYLIIDINYFPGYAKMPSYEPVLTEFFWDMVTKKNHV
Turning to B2, in experiment [3], the binding entry was “binds”.
